Protein sequences, listed by entry. Tags and fused reporters are not part of them.
UniProt O95477: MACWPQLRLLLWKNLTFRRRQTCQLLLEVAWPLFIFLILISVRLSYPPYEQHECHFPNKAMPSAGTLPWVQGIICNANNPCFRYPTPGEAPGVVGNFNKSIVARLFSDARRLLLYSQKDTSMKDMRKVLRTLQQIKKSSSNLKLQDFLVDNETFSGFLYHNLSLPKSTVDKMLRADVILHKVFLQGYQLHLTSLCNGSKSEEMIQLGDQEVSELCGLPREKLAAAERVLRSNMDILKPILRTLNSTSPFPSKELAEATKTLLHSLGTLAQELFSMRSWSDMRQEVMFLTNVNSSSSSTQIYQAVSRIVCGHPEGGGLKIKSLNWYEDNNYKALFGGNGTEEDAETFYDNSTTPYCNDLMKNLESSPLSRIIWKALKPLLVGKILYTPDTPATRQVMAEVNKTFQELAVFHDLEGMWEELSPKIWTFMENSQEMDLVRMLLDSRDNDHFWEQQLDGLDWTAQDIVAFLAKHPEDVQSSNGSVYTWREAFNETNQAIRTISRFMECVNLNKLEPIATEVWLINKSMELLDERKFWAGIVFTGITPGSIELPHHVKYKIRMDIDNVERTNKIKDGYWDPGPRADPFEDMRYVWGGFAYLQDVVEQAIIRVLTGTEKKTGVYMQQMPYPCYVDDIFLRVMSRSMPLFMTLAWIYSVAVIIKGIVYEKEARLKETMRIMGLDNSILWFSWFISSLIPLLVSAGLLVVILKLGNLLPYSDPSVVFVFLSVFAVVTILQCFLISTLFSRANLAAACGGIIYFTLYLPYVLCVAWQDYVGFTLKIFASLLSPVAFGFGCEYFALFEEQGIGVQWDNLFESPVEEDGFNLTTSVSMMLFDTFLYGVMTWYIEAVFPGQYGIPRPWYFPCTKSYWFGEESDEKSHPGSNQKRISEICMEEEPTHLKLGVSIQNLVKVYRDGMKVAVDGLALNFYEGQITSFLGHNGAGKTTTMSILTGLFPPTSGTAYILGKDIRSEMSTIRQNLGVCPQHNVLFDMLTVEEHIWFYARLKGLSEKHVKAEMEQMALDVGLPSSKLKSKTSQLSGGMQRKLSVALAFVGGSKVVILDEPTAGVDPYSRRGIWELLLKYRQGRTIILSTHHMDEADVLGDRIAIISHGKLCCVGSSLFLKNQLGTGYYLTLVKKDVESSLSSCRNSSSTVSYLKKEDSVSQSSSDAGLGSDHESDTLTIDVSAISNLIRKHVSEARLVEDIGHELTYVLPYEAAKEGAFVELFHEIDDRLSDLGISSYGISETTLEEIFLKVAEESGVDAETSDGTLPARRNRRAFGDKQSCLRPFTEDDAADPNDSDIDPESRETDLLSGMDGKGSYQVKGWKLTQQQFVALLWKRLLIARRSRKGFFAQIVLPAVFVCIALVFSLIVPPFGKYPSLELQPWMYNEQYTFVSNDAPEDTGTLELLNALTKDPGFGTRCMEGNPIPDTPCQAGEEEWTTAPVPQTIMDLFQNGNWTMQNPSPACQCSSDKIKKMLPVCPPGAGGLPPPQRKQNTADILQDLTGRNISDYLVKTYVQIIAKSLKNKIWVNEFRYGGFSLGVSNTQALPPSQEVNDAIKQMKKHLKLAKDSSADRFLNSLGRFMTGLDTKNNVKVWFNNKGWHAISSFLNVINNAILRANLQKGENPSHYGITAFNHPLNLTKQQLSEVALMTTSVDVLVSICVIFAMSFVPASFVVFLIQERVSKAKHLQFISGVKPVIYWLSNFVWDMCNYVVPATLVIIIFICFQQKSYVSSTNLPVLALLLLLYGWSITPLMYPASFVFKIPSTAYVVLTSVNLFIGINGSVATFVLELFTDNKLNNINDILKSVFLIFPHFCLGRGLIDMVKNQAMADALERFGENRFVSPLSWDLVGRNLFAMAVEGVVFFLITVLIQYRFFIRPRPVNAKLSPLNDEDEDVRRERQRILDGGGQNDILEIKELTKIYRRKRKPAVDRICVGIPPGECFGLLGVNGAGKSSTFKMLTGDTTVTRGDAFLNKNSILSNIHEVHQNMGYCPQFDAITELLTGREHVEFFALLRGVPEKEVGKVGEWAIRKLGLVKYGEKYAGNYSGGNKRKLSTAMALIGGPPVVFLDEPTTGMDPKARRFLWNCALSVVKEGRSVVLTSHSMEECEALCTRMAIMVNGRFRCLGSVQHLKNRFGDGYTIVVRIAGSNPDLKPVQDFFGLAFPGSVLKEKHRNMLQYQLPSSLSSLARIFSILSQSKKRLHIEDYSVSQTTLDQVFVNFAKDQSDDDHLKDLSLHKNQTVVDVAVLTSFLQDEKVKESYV
UniProt P63010: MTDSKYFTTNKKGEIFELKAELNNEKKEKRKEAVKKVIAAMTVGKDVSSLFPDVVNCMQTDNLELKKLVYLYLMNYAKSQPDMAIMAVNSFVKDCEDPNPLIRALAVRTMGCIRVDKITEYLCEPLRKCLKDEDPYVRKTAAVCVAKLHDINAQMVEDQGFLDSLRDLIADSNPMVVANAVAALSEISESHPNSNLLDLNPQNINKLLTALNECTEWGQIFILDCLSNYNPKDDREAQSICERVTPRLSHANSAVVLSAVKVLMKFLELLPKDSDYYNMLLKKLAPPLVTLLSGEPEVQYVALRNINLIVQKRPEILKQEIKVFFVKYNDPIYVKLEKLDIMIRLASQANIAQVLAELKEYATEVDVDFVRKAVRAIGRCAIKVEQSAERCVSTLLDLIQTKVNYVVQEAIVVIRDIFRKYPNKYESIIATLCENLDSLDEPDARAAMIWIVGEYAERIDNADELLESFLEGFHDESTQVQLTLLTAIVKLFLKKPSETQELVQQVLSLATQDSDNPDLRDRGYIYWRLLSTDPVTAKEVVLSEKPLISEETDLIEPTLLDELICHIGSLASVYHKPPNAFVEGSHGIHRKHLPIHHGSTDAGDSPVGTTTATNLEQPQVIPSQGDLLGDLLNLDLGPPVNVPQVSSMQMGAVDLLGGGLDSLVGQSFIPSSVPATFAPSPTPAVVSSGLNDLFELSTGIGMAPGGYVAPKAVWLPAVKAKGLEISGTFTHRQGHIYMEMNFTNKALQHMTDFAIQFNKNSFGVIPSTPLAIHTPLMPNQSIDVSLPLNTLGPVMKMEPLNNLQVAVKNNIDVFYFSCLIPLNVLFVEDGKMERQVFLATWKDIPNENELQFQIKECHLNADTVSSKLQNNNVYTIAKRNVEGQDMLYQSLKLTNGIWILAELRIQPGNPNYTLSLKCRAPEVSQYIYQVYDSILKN
UniProt Q03135: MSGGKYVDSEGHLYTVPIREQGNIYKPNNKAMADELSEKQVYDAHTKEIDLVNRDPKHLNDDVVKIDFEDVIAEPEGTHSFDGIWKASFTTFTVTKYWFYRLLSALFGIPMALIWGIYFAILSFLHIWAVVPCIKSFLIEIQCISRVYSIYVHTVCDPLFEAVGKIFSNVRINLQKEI

In PMC11118681:

Target: ABCA1-GFP (ATP-binding cassette transporter A1 fused to GFP) (UniProt O95477)
Assay: affinity purification with mass spectrometry; GFP-Trap agarose on lysates of HeLa (ABCA1-GFP) cells treated with recombinant APOE3 or APOE4 (0.2 uM, 4 h); lysis in 0.5% NP40, 350 mM NaCl, 20 mM Hepes, 1.2% Triton X-100; overnight at 4°C; glycine elution, TCA precipitation, LC-MS/MS

binding	Substance
binds	adaptor-related protein complex 2 subunit beta 1 (from UniProt P63010 1-937)
binds	caveolin-1 (from UniProt Q03135 1-178)

Results are given in words; binding and its absence hold for the method and conditions named. Binding seen in cells or lysates may run through a third protein. These calls come from enrichment with a bait or labelling near it, and not all partners need be listed.
